Source: patent publication US20110097341A1 (Pfizer, published 2011)
These are yes or no findings as the source states them, for the method shown. Some entries that bind do so weakly or less than the wild type.

Protein sequences, listed by entry. Tags and fused reporters are not part of them. Residues count along the entry.
UniProt P01138, residues 122-241: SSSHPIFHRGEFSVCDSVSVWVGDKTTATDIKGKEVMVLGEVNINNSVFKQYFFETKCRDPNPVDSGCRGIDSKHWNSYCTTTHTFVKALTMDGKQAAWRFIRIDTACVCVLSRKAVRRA

These binders were tested against human NGF (human, UniProt P01138 122-241) (assay: SPR (BIAcore) affinity screening of L1/L2 library clones on human NGF).

Binder | binding
L129 (Fab, V domains shown) VH: QVQLQESGPGLVKPSETLSLTCTVSGFSLIGYDINWIRQPPGKGLEWIGMIWGDGTTDYNSALKSRVTISKDTSKNQFSLKLSSVTAADTAVYYCARGGYYYGTSYYFDYWGQGTLVTVS VL: DIQMTQSPSSLSASVGDRVTITCRASQSISNNLNWYQQKPGKAPKLLIYYTSRFHSGVPSRFSGSGSGTDFTFTISSLQPEDIATYYCQQSKTLPYTFGQGTKLEIKR | binds
L208 (Fab, V domains shown) VH: QVQLQESGPGLVKPSETLSLTCTVSGFSLIGYDINWIRQPPGKGLEWIGMIWGDGTTDYNSALKSRVTISKDTSKNQFSLKLSSVTAADTAVYYCARGGYYYGTSYYFDYWGQGTLVTVS VL: DIQMTQSPSSLSASVGDRVTITCRASQYISNHLNWYQQKPGKAPKLLIYYTSRFHSGVPSRFSGSGSGTDFTFTISSLQPEDIATYYCQQSKTLPYTFGQGTKLEIKR | binds
L97 (Fab, V domains shown) VH: QVQLQESGPGLVKPSETLSLTCTVSGFSLIGYDINWIRQPPGKGLEWIGMIWGDGTTDYNSALKSRVTISKDTSKNQFSLKLSSVTAADTAVYYCARGGYYYGTSYYFDYWGQGTLVTVS VL: DIQMTQSPSSLSASVGDRVTITCRASQSISNQLNWYQQKPGKAPKLLIYYVSRFHSGVPSRFSGSGSGTDFTFTISSLQPEDIATYYCQQSKTLPYTFGQGTKLEIKR | binds
L81 (Fab, V domains shown) VH: QVQLQESGPGLVKPSETLSLTCTVSGFSLIGYDINWIRQPPGKGLEWIGMIWGDGTTDYNSALKSRVTISKDTSKNQFSLKLSSVTAADTAVYYCARGGYYYGTSYYFDYWGQGTLVTVS VL: DIQMTQSPSSLSASVGDRVTITCRAFQAISNQLNWYQQKPGKAPKLLIYYISRFHTGVPSRFSGSGSGTDFTFTISSLQPEDIATYYCQQSKTLPYTFGQGTKLEIKR | binds
